Assay [1] has as its target recombinant CD33-HisTag (Homo sapiens (Human)) (UniProt P20138). The assay is described as follows: flow cytometry on erythroid cells expressing the construct. (In flow cytometry, cells or beads pass a laser one at a time.)
For assay [2], the target named is CD33 on MV-4-11 human AML cells (human) (UniProt P20138). The assay is described as follows: flow cytometry, cell-cell binding.

By UniProt entry, the sequences of proteins in these tests, tags left out. Where a name states a change or a piece, a line headed by the entry shows the natural chain unless it says otherwise.
UniProt P20138: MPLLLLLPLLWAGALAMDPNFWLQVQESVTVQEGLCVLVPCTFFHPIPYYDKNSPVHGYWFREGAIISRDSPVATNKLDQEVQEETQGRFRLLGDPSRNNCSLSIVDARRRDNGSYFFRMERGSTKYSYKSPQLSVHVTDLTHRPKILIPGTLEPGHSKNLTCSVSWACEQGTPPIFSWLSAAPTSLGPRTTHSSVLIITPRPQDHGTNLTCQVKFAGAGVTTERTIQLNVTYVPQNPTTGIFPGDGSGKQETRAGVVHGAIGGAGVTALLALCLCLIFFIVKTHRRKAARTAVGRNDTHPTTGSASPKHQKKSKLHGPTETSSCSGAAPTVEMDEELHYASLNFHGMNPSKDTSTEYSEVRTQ

These are yes or no findings as the source states them, for the method shown. Some binding calls cover weakened binding; strength is not graded here. Sequences can lack the tags named with a protein.

B1: HA-αCD33scFv-GPA (anti-CD33 scFv fused to the N-terminus of GPA), expressed on the surface of erythroid cells (scFv)
chain: QVQLVQSGAEVKKPGASVKVSCKASGYTFTNYDINWVRQAPGQGLEWIGWIYPGDGSTKYNEKFKAKATLTADTSTSTAYMELRSLRSDDTAVYYCASGYEDAMDYWGQGTTVTVSSGGGGSGGGGSGGGGSDIQMTQSPSSLSASVGDRVTINCKASQDINSYLSWFQQKPGKAPKTLIYRANRLVDGVPSRFSGSGSGQDYTLTISSLQPEDFATYYCLQYDEFPLTFGGGTKVEIKGGSGGSGGYPYDVPDYAGGSGGSGGMYGKIIFVLLLSEIVSISALSTTEVAMHTSTSSSVTKSYISSQTNDTHKRDTYAATPRAHEVSEISVRTVYPPEEETGERVQLAHHFSEPEITLIIFGVMAGVIGTILLISYGIRRLIKKSPSDVKPLPSPDTDVPLSSVEIENPETSDQ
In the case of B1, the binding entry in assay [1] and in assay [2] was “binds” in each case.

These data come from patent US20190160102A1.
